From patent US11632972B2, “S-nitrosothiol compounds and their combinations with nitrosamine blocking agents for safe food preservation” (YISSUM RESEARCH DEVELOPMENT COMPANY OF THE HEBREW …, priority 2017, dated 2023)

Tests used:
[1] = N-nitrosamine formation from N-methylaniline in a meat model system (ground beef); settings: for N-nitrosamines level: Experiment D: vacuum 100 mbar, 192 h storage at 4° C.; for change of concentration of N-nitrosamines after transfer to simulated stomach medium: Experiment F: pH 3.0; for N-nitrosamines levels: Experiment F: 2% NaCl, 3.27 mM ascorbic acid, stored 4° C. 216 hr
[2] = Effect on the color of the meat (Hunter L*, a*, b*, colorimeter); settings: ground beef heated to 72° C.
Experimental: Nitrite is known to be responsible for the characteristic pink color associated with cured meat products and flavor stabilization. The color development and color stability of ground beef treated S-nitroso-cysteine and S-nitroso-N-acetylcysteine after heating to 72° C. was compared to the color of ground beef treated with nitrite. A portable colorimeter (X-rite) was used to measure Hunter color lightness, redness and yellowness (L*, a*, b*) values of ground beef samples treated with the different additives and heated in a microwave oven (Dow, S-Korea, at 800 W) to 72° C. in the center. The instrument was standardized using white and black standard plates.

[3] = Experiment B: 2.5 mM additive, heated 72° C., stored 24 h at 4° C., homogenized pH 6.2
[4] = Experiment C: stored 24 h at 4° C., homogenized pH 3.0, incubated 37° C. 30 min (stomach conditions)

SMILES | N-nitrosamines formation ([1]; Experiment A: 2.5 mM additive, heated 72° C., cooled to 4° C. (30 minutes), homogenized immediately pH 6.2) | N-nitrosamines formation [1, 3] | N-nitrosamines formation [1, 4] | N-nitrosamines level ([1]; heated 72° C.) | change of concentration of N-nitrosamines after transfer to simulated stomach medium [1] | reduction of N-nitrosamine formation in anaerobic conditions compared to aerobic conditions ([1]; vacuum bags vs aerobic) | redness (Δa*) of meat compared with meat treated with sodium nitrite [2] | N-nitrosamine formation in anaerobic conditions compared to aerobic conditions ([1]; vacuum bags vs aerobic) | increase of N-nitrosamines formation at acidic stomach pH ([1]; Experiment C compared with 24 h storage (Experiment B)) | N-nitrosamine formation relative to the other agents ([1]; Experiment E: vacuum 8 mbar, after 216 hr) | N-nitrosamines levels ([1]; before transfer to simulated stomach medium) | N-nitrosamines levels ([1]; simulated stomach medium pH 3.0, 30 min, 37° C.) | increase of N-nitrosamines levels after transfer to simulated stomach medium ([1]; Experiment F: pH 3.0, 30 min, in the presence of ascorbic acid)
N[C@@H](CSN=O)C(=O)O [S-nitroso-cysteine, S-nitrosocysteine] | ~28 µM | significantly higher than nitrite and S-nitroso-N-acetylcysteine | 47 µM | ~50 µM | almost did not change | ~40% | twofold redder | – | – | – | – | – | –
CC(=O)N[C@@H](CSN=O)C(=O)O [S-nitroso-N-acetylcysteine] | – | 13 µM | 15 µM | ~20 µM | almost did not change | – | twofold redder | remained low and the same | – | – | – | – | –
O=NO [sodium nitrite] | – | 15 µM | 115 µM | ~50 µM | – | ~40% | – | – | eightfold | twofold higher than the other agents | ~20 µM | 90 µM | more than fourfold
